# Measurements from article PMC6970084.
# Chains of the proteins cited; added tags and fusions are not shown.
# UniProt P78362: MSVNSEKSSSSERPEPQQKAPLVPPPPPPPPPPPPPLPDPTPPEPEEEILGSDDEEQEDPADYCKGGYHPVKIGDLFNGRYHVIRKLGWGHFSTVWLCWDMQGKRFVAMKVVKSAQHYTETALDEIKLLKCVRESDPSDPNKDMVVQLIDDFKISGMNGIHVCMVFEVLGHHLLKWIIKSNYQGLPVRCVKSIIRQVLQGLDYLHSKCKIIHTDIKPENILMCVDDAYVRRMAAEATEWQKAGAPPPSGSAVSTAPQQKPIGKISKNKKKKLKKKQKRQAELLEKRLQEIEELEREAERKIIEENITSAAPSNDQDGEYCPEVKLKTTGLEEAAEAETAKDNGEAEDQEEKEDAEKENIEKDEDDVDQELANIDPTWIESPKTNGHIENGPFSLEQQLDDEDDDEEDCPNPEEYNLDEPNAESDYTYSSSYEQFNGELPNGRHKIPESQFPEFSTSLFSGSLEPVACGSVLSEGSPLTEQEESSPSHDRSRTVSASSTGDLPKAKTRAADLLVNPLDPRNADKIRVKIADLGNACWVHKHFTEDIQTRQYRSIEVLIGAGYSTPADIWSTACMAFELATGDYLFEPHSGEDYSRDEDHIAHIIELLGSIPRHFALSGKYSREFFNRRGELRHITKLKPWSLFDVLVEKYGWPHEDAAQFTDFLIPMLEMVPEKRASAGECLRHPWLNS
# Results are given in words; binding and its absence hold for the method and conditions named. In cells and extracts the contact can be indirect. Some binding calls cover weakened binding; strength is not graded here.
# Assays:
# Experiment in all cases: co-IP; endogenous proteins of HCT116 cells, without or with 5-fluorouracil at its IC50; precipitated with SRPK2, Numb or p53 antibody, control IgG as negative control; blotted; procedure as in ref. 15
# [1] = target: T1, Numb (human (endogenous in HCT116)) (UniProt P49757)
# T1 sequence: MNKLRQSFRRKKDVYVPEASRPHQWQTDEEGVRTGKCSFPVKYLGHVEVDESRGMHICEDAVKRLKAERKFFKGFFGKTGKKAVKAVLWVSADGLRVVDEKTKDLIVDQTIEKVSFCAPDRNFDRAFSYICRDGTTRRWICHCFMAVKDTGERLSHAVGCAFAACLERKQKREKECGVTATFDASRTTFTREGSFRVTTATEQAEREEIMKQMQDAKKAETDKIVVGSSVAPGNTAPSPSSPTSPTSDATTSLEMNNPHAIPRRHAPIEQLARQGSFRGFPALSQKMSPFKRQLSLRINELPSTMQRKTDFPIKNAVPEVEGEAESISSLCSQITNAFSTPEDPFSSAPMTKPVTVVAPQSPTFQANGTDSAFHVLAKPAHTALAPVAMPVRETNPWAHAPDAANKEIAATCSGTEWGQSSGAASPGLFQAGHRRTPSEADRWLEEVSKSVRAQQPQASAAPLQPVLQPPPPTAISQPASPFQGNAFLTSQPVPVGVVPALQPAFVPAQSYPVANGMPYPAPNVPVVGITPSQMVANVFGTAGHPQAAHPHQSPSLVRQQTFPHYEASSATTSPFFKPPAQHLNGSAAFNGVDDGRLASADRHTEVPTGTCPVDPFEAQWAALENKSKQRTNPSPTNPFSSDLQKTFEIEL
# [2] = target: wild-type p53 (human (endogenous in HCT116)) (UniProt P04637)
# [3] = target: Serine-arginine protein kinase 2 (human (endogenous in HCT116)) (UniProt P78362)
binding [1],binding [2],binding [3],Substance
binds,binds,,Serine-arginine protein kinase 2 (from UniProt P78362 1-688) (enzyme)
,,binds,wild-type p53 (from UniProt P04637 1-393)
